In patent US20240067728A1:
These are yes or no findings as the source states them, for the method shown. Some entries that bind do so weakly or less than the wild type.

By UniProt entry, the sequences of proteins in these tests, tags left out. Residues count along the entry.
UniProt Q08722, residues 19-323: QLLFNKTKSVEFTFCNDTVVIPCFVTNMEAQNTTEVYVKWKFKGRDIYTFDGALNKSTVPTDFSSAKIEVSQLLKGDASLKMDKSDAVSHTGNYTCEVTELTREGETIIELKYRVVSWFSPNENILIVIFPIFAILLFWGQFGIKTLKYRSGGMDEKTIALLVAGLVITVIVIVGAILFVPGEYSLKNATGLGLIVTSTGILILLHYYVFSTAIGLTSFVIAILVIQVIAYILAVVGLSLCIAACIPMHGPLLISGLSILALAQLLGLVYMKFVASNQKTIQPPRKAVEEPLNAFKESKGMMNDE

What was measured:
[1] = target: CD47 on human T lymphocyte leukemia Jurkat cells (human) (UniProt Q08722); experiment: flow cytometry (FACS) on Jurkat cells, PE anti-human Fc
[2] = target: CD47 on human red blood cells (human) (UniProt Q08722); experiment: flow cytometry (FACS) on human red blood cells, PE anti-human Fc
[3] = target: CD47 on human T lymphocyte leukemia Jurkat cells (human) (UniProt Q08722); experiment: FACS on Jurkat cells, PE-labeled anti-human Fc secondary antibody; MFI(Mean) against Con(nM)
[4] = target: CD47 on human red blood cells (human) (UniProt Q08722); experiment: FACS on human red blood cells, PE-labeled anti-human Fc secondary antibody; MFI(Mean) against Con(nM)

Measured: binding

B1: 47-R2-4 (antibody, human IgG1, kappa, V domains shown)
VH: QVQLQESGPGLVKPSETLSLTCTVSGGSLDNYYWSWIRQPPGKGLEWIGYIYYSGNTNYNPSLKSRVTISVDTSKNQFSLKLSSVTAADTAVYYCARGGRFLERYWGQGTLVTVSS
VL: EIVLTQSPSSLSASVGDRVTITCLASQTIGTWLAWYQQKPGKSPQLLIYAASTLQSGVPSRFSGSGSGTDFTLTISSLQPEDVATYYCQQYYSTPRTFGQGTKVEIKR
binds: [1] | [2] | [3] | [4]
